No constants are given. Whether binding was seen depends on the method and setting. Binding seen in cells or lysates may run through a third protein. Binding can be weak; no strength is given.
T1: TLR6 (mouse (endogenous in DC2.4)) (UniProt Q9EPW9)
T1 sequence: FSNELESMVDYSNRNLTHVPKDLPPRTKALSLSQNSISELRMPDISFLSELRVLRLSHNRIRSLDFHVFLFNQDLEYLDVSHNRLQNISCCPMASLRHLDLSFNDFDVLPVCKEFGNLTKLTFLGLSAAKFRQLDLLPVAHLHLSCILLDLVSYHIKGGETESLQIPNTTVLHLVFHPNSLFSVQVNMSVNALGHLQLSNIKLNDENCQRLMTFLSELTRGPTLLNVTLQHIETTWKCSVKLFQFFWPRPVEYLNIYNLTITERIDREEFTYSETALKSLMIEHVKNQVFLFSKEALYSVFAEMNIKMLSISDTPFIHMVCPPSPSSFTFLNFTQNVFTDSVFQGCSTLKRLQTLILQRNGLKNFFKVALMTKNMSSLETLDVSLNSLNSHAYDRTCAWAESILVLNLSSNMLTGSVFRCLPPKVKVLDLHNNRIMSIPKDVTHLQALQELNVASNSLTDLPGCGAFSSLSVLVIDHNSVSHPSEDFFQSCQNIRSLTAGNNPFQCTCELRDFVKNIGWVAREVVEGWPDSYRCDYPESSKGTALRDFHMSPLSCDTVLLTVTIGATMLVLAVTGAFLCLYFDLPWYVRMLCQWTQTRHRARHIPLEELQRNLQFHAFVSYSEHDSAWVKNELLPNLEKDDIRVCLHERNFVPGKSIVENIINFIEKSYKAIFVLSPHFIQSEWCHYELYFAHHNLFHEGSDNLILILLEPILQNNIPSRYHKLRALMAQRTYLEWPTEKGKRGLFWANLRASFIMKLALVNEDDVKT

B1: TLR6 (receptor, UniProt Q9EPW9 28-795)
chain: FSNELESMVDYSNRNLTHVPKDLPPRTKALSLSQNSISELRMPDISFLSELRVLRLSHNRIRSLDFHVFLFNQDLEYLDVSHNRLQNISCCPMASLRHLDLSFNDFDVLPVCKEFGNLTKLTFLGLSAAKFRQLDLLPVAHLHLSCILLDLVSYHIKGGETESLQIPNTTVLHLVFHPNSLFSVQVNMSVNALGHLQLSNIKLNDENCQRLMTFLSELTRGPTLLNVTLQHIETTWKCSVKLFQFFWPRPVEYLNIYNLTITERIDREEFTYSETALKSLMIEHVKNQVFLFSKEALYSVFAEMNIKMLSISDTPFIHMVCPPSPSSFTFLNFTQNVFTDSVFQGCSTLKRLQTLILQRNGLKNFFKVALMTKNMSSLETLDVSLNSLNSHAYDRTCAWAESILVLNLSSNMLTGSVFRCLPPKVKVLDLHNNRIMSIPKDVTHLQALQELNVASNSLTDLPGCGAFSSLSVLVIDHNSVSHPSEDFFQSCQNIRSLTAGNNPFQCTCELRDFVKNIGWVAREVVEGWPDSYRCDYPESSKGTALRDFHMSPLSCDTVLLTVTIGATMLVLAVTGAFLCLYFDLPWYVRMLCQWTQTRHRARHIPLEELQRNLQFHAFVSYSEHDSAWVKNELLPNLEKDDIRVCLHERNFVPGKSIVENIINFIEKSYKAIFVLSPHFIQSEWCHYELYFAHHNLFHEGSDNLILILLEPILQNNIPSRYHKLRALMAQRTYLEWPTEKGKRGLFWANLRASFIMKLALVNEDDVKT

Key:
[1] = molecular target: T1, TLR6 (mouse (endogenous in DC2.4)); assay: co-IP; endogenous proteins; DC2.4 cells co-cultured 24 h with Scramble- or Arf1-ablated CT26 cells, lysed in NP-40 lysis buffer; supernatants incubated with anti-CD36, anti-TLR2, anti-TLR6 or anti-Rab7 antibody overnight at 4 °C, agarose beads 2 h, washed three times with NP-40 buffer, immunoblotting
[2] = molecular target: Rab7 (mouse (endogenous in DC2.4)); assay: as above

Row | binding [1] | binding [2] | Molecule
1 | binds |  | Rab7 (mouse (endogenous in DC2.4))
2 |  | binds | B1
